Measurements: publication doi:10.1101/2024.03.28.586926
Changes are numbered by the printed parent chain. Where two headings read alike, the source gives them in different places. Results are given in words; binding and its absence hold for the method and conditions named. In cells and extracts the contact can be indirect. Some binding calls cover weakened binding; strength is not graded here. For some assays here: Where a sequence is shown, tags or fusion partners need not be part of it.

By UniProt entry, the sequences of proteins in these tests, tags left out.
UniProt Q13616: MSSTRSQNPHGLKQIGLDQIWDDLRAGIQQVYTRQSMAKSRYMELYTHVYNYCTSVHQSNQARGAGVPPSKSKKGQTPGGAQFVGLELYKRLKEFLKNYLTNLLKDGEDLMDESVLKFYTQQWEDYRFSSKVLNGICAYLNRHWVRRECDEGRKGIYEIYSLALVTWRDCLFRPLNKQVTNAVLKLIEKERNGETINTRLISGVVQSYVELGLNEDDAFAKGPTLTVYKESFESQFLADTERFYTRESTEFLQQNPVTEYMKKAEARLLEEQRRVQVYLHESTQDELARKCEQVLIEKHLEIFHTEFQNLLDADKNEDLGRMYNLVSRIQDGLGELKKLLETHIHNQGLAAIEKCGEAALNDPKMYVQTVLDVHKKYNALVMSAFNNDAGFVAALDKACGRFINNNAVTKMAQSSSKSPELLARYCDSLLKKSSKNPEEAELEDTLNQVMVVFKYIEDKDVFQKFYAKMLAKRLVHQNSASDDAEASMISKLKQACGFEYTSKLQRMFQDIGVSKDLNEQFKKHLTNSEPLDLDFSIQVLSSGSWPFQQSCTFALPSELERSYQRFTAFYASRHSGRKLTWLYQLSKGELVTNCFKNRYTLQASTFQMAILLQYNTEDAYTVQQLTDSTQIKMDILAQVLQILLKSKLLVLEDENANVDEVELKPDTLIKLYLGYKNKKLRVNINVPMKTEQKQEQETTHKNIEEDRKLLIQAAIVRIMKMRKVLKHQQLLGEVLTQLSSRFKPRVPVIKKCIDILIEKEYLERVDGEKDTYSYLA
UniProt Q13309: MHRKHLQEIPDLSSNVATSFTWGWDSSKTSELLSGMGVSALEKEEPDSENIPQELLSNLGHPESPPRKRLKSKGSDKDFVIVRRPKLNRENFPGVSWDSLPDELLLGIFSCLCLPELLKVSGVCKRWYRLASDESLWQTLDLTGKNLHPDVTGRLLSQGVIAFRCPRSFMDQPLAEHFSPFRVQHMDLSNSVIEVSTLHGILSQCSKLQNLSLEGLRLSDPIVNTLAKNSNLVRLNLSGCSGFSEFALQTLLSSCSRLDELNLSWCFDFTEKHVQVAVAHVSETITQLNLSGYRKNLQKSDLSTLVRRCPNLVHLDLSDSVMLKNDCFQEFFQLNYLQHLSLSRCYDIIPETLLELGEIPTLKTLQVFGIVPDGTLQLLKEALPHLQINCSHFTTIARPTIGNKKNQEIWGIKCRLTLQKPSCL

Experiments:
Assay in all cases: co-IP
[1] = biological target: T1, FBXO2, endogenous (human (endogenous in HEK293, Hep3B, HCC-LM3)) (UniProt Q9UK22)
T1 sequence: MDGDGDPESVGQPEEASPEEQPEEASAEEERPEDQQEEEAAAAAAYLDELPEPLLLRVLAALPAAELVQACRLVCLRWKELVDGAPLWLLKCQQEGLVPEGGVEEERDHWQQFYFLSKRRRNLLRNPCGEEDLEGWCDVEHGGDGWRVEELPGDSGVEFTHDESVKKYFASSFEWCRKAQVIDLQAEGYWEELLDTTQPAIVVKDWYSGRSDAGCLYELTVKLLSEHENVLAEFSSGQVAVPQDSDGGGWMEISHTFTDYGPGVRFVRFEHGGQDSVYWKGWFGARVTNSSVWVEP

Flag-FBXO2 Y278A (human) = biological target: T2, Flag-FBXO2 Y278A (human) (UniProt Q9UK22)
T2 sequence: T1 sequence with Y278A

[2] = biological target: T3, Flag-tagged FBXO2 (wild type) (human) (UniProt Q9UK22)
T3 sequence: T1 sequence

Flag-CUL1 = Flag-CUL1 (UniProt Q13616)
Flag-FBXO2 W279A (human) = biological target: T4, Flag-FBXO2 W279A (human) (UniProt Q9UK22)
T4 sequence: T1 sequence with W279A

[3] = biological target: T1, FBXO2, endogenous (human (endogenous in HEK293, Hep3B, HCC-LM3)); remark: listed apart in the source
[4] = biological target: T5, Flag-tagged Hsp47 (human) (UniProt P50454)
T5 sequence: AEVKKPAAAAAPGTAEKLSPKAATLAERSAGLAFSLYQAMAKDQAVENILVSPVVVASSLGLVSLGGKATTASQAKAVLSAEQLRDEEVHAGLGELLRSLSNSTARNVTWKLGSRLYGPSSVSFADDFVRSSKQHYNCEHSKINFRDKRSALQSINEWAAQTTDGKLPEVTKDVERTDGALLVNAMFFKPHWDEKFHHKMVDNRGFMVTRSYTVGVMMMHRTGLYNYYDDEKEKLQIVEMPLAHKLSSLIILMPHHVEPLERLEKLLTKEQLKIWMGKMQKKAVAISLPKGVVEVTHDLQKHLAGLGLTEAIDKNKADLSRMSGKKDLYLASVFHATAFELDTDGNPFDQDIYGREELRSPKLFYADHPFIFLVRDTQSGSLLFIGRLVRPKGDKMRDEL

Flag-tagged SKP2 = Flag-tagged SKP2 (UniProt Q13309)

Molecule: EGFR, endogenous (from UniProt P00533 25-1210) (receptor)
- binding [1]: no binding

B1: heat shock protein 47 (Hsp47), endogenous (protein, UniProt P50454 19-418)
chain: T5 sequence
- binding (Flag-FBXO2 Y278A (human)): no binding
- binding [2]: binds
- binding (Flag-CUL1): binds
- binding (Flag-FBXO2 W279A (human)): no binding
- binding [3]: binds

B2: FBXO2, endogenous (protein, UniProt Q9UK22 1-296)
chain: T1 sequence
- binding [4]: binds
- binding (Flag-tagged SKP2): binds
